Source: PubChem BioAssay AID1259327 (Drosophila RNAi Screening Center, 2017)
Screen: 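Knock-downs altering cellular ATP with no metal added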. Cells: Drosophila S2R+ cells. Reagent: long dsRNA against Drosophila genes. Duration: 5 days (water added on day 4, read one day later). Challenge: water added as vehicle, no metal, one day before read-out. Measured: 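Total ATP measured by luciferase light, scaled to plate mean, duplicates averaged, then z-scored across plates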. Direction: ATP z-score: higher = more total ATP than typical wells; ATP luminescence: higher = more total ATP. Rule for the call: 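a hit is any knock-down whose absolute ATP z-score is greater than 1.5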. Meaning of the calls: active = hit: ATP up or down; inactive = no clear ATP change.
The deposit covers about 3,100 reagents; below is an unselected part. Over the whole deposit, 378 (12%) were called active. 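Hits include both directions; z-score sign shows ATP rise or fall; raw luminescence values are not plate-normalised.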 Reagents against one gene are numbered here. A plus sign joins genes that one reagent is predicted to hit. No sequences are given here. Not stated in the record: the amount of reagent.

gene	dsRNA no.	ATP z-score, duplicate mean	ATP luminescence, replicate 1 (RLU)	ATP luminescence, replicate 2 (RLU)	Outcome
CNT2	1	0.211	7.69e5	7.37e5	inactive
CG33181	1	-0.214	6.64e5	8.58e5	inactive
CG33181	2	-0.192	8.28e5	7.73e5	inactive
CG12121	1	1.03	8.93e5	7.53e5	inactive
CG12121	2	0.186	5.14e5	4.40e5	inactive
Alk	1	-1.83	3.70e5	4.79e5	active
Alk	2	-1.44	5.12e5	4.04e5	inactive
Alk	3	-0.0388	6.02e5	5.51e5	inactive
Toll-6	1	0.401	9.16e5	9.79e5	inactive
Toll-6	2	1.79	6.54e5	5.51e5	active
GAA1	1	0.602	7.99e5	7.37e5	inactive
GAA1	2	-1.64	4.21e5	3.03e5	active
rho-7 + CG34231	1	-0.551	4.45e5	3.89e5	inactive
Ptp99A	1	-0.29	6.51e5	7.06e5	inactive
Ptp99A	2	-0.272	6.85e5	7.42e5	inactive
Ptp99A	3	-0.466	7.16e5	8.69e5	inactive
Ptp99A	4	-0.533	4.99e5	5.71e5	inactive
Ptp99A	5	-1.36	4.32e5	4.98e5	inactive
Ranbp16	1	0.868	5.59e5	8.41e5	inactive
sing + Axs	1	-0.293	6.78e5	7.45e5	inactive
sing + Axs	2	-0.462	4.58e5	4.34e5	inactive
Coq2	1	1.01	1.01e6	8.84e5	inactive
Coq2	2	2.16	6.32e5	5.62e5	active
Syt1	1	0.214	7.33e5	8.01e5	inactive
Syt1	2	-0.721	4.01e5	4.58e5	inactive
Syt1	3	1.09	6.63e5	6.81e5	inactive
Syt1	4	-0.797	9.99e5	1.15e6	inactive
HisCl1	1	0.65	8.07e5	7.39e5	inactive
ppk28	1	1.83	8.52e5	1.04e6	active
ppk28	2	-0.0675	4.52e5	4.70e5	inactive
ppk27	1	-0.68	6.01e5	4.42e5	inactive
fz	1	-0.46	7.99e5	8.70e5	inactive
fz	2	-0.782	5.18e5	5.09e5	inactive
Kap-alpha1	1	-0.203	9.09e5	8.32e5	inactive
CG34396	1	-0.851	6.73e5	6.00e5	inactive
CG34396	2	-0.539	2.78e5	6.95e5	inactive
CG34396	3	-0.0944	8.65e5	7.63e5	inactive
CG10062	1	-0.406	7.71e5	8.29e5	inactive
rut	1	2.81	7.73e5	8.63e5	active
Tmx3	1	-0.218	6.78e5	7.38e5	inactive
Tmx3	2	0.378	5.07e5	4.74e5	inactive
CG6974	1	0.575	2.74e5	9.55e5	inactive
CG4313	1	-0.338	6.90e5	6.52e5	inactive
CG4313	2	0.175	9.33e5	7.63e5	inactive
CG8850	1	-1.49	5.07e5	4.63e5	inactive
CG8850	2	1.15	1.08e6	9.09e5	inactive

Targets above whose gene name starts with G or g (2):
gene	dsRNA no.	ATP z-score, duplicate mean	ATP luminescence, replicate 1 (RLU)	ATP luminescence, replicate 2 (RLU)	Outcome
GAA1	1	0.602	7.99e5	7.37e5	inactive
GAA1	2	-1.64	4.21e5	3.03e5	active
